PubChem BioAssay AID1159579, Peter MacCallum Cancer Centre, 2015

- Test: 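Retest candidate lymphatic endothelial migration regulators using several independent siRNAs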 (follow-up of hits)
- Cell system: human dermal lymphatic endothelial cells
- Reagents: single siRNA against human genes, 25 nM
- Read-out: 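Scratch wound imaging measuring area filled by moving cells plus nuclei number, averaged over two wells and scaled to mock-transfected controls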
- Reading the numbers: migration relative to mock: higher = more migration into the scratch; mean nuclei count: higher = more cells remaining
- Call rule: 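a ratio of at most 0.6 or at least 1.3 marks altered migration and an active call; a mean nuclei count under 3300 forces an inactive call regardless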
- Calls: active = migration changed (impaired or accelerated); inactive = no migration change, or too few cells
This is an unselected part of about 2,000 reagents tested. Of all reagents, 549 (27%) were called active. 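Some migration ratios are negative; siRNAs with too few cells are inactive whatever their migration ratio.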 Reagents against one gene are numbered here. No sequences are given here. Not stated in the record: the time to read-out.

| Gene | siRNA no. | migration relative to mock | migration and cell number class | mean nuclei count | Call |
| --- | --- | --- | --- | --- | --- |
| FCRL2 | 1 | 0.54 | migration reduced | 4001 | active |
| FCRL2 | 2 | 0.48 | migration reduced | 5798 | active |
| FCRL2 | 3 | 0.5 | migration reduced | 5010 | active |
| FCRL2 | 4 | 0.48 | migration reduced | 4553 | active |
| LYPLA2 | 1 | 0.88 | no change in migration or cell number | 6487 | inactive |
| LYPLA2 | 2 | 0.5 | migration reduced | 6764 | active |
| LYPLA2 | 3 | 0.19 | migration reduced | 6312 | active |
| LYPLA2 | 4 | 0.76 | no change in migration or cell number | 6150 | inactive |
| SPDYE3 | 1 | 0.54 | migration reduced | 4861 | active |
| SPDYE3 | 2 | 0.92 | no change in migration or cell number | 5935 | inactive |
| SPDYE3 | 3 | 0.9 | no change in migration or cell number | 5594 | inactive |
| SPDYE3 | 4 | 0.82 | no change in migration or cell number | 4064 | inactive |
| FLOT2 | 1 | 0.85 | no change in migration or cell number | 5172 | inactive |
| FLOT2 | 2 | 1.09 | no change in migration or cell number | 4520 | inactive |
| FLOT2 | 3 | 0.73 | no change in migration or cell number | 5366 | inactive |
| FLOT2 | 4 | 1.08 | no change in migration or cell number | 5514 | inactive |
| PLCL1 | 1 | 0.75 | no change in migration or cell number | 5427 | inactive |
| PLCL1 | 2 | 0.76 | no change in migration or cell number | 4746 | inactive |
| PLCL1 | 3 | 0.86 | no change in migration or cell number | 4512 | inactive |
| PLCL1 | 4 | 1.48 | migration increased | 5610 | active |
| AGER | 1 | 1.1 | no change in migration or cell number | 6051 | inactive |
| AGER | 2 | 0.94 | no change in migration or cell number | 5854 | inactive |
| AGER | 3 | 0.62 | no change in migration or cell number | 5202 | inactive |
| AGER | 4 | 0.86 | no change in migration or cell number | 6304 | inactive |
| MINK1 | 1 | 0.63 | no change in migration or cell number | 6475 | inactive |
| MINK1 | 2 | 0.72 | no change in migration or cell number | 5298 | inactive |
| MINK1 | 3 | 0.82 | no change in migration or cell number | 5814 | inactive |
| MINK1 | 4 | -1.17 | too few cells; migration not scored | 3139 | inactive |

Records above whose gene name starts with A or a:
| Gene | siRNA no. | migration relative to mock | migration and cell number class | mean nuclei count | Call |
| --- | --- | --- | --- | --- | --- |
| AGER | 1 | 1.1 | no change in migration or cell number | 6051 | inactive |
| AGER | 2 | 0.94 | no change in migration or cell number | 5854 | inactive |
| AGER | 3 | 0.62 | no change in migration or cell number | 5202 | inactive |
| AGER | 4 | 0.86 | no change in migration or cell number | 6304 | inactive |

Further records follow:
| Gene | siRNA no. | migration relative to mock | migration and cell number class | mean nuclei count | Call |
| --- | --- | --- | --- | --- | --- |
| SLC26A11 | 1 | 0.41 | migration reduced | 4904 | active |
| SLC26A11 | 2 | 0.75 | no change in migration or cell number | 5678 | inactive |
| SLC26A11 | 3 | -0.08 | migration reduced | 4512 | active |
| SLC26A11 | 4 | 0.58 | migration reduced | 5589 | active |
| CHCHD3 | 1 | 0.77 | no change in migration or cell number | 6556 | inactive |
| CHCHD3 | 2 | 0.92 | no change in migration or cell number | 5151 | inactive |
| CHCHD3 | 3 | 1.06 | no change in migration or cell number | 6946 | inactive |
| CHCHD3 | 4 | 0.96 | no change in migration or cell number | 6124 | inactive |
| BLM | 1 | 0.73 | no change in migration or cell number | 6335 | inactive |
| BLM | 2 | 0.81 | no change in migration or cell number | 6498 | inactive |
| BLM | 3 | 1.4 | migration increased | 5962 | active |
| BLM | 4 | 0.94 | no change in migration or cell number | 4508 | inactive |
| HBE1 | 1 | 1.02 | no change in migration or cell number | 6816 | inactive |
| HBE1 | 2 | 0.81 | no change in migration or cell number | 6160 | inactive |
| HBE1 | 3 | 0.97 | no change in migration or cell number | 7624 | inactive |
| HBE1 | 4 | -1.96 | too few cells; migration not scored | 2398 | inactive |
| CEACAM5 | 1 | 0.74 | no change in migration or cell number | 6639 | inactive |
| CEACAM5 | 2 | 0.71 | no change in migration or cell number | 4580 | inactive |
| CEACAM5 | 3 | 1.21 | no change in migration or cell number | 5838 | inactive |
| CEACAM5 | 4 | 0.94 | no change in migration or cell number | 4324 | inactive |
